Test results: PubChem BioAssay AID2685 (National Center for Advancing Translational Sciences (NCATS), 2010)
Hit rate of the full screen: of about 320,000 compounds, about 2,100 (0.66%) were called active. The call rests on the fitted dose curve; in most records, active means well fitted inhibition curve with a large enough effect in the signal ratio, with a control signal flat (not every such curve was filed as active); inconclusive means small, poorly fitted or top-dose-only effect, or effect the other way, or a change in a side signal; inactive means flat fitted curve, though single readings scatter; the % refers to the signal ratio. Inconclusive results, whose numbers are uncertain, are shown. Potencies beside an inconclusive call are fits to weak or partial responses and may not hold up.

assay: qHTS Assay for Lipid Storage Modulators in Drosophila S3 Cells; settings: BODIPY lipid droplet fluorescence, 18-24 h, cells fed with added oleic acid; lipid storage change, negative = inhibition: at 46.1 µM (top of the series) unless noted
Outline: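 Drosophila S3 cells got compounds at several concentrations plus oleic acid (400 uM solution). Laser-scanning cytometry with 488 nm excitation read lipid droplets at 500-530 nm and cells at 575-640 nm. Percent activity was relative to 20 uM Triacsin C.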
On the % scale 0 is the no-effect control and ±100 the full control effect; potency means the concentration at half of the fitted maximal effect.

Lipid storage change, negative = inhibition, inconclusive:
Cc1nc(C(C)(C)O)n(-c2ccccc2)n1 6.54%, Cc1c(NC(=O)CN2CCN(c3cccc(Cl)c3)CC2)c(=O)n(-c2ccccc2)n1C 7.31%, CCN(CC)S(=O)(=O)c1ccc(N2CCOCC2)c(NC(=O)Cc2ccccc2)c1 -18.2%, Cn1cc(CN2CCN(c3ccccc3)CC2)c2ccccc21 -54.8% [at 0.0737 µM], Cc1ccc(C)c(S(=O)(=O)N2CCCOC2CNC(=O)C(=O)NC2CC2)c1 (stereo not given) 5.75%, CCOC(=O)c1c(C)[nH]c(C(=O)OCC(=O)c2c(N)n(C)c(=O)n(C)c2=O)c1C 0.0107%, O=C(N1CCCCC1)C1(c2ccccc2)CCCCC1 -18.4%, N#C/C(=C(/O)COC(=O)c1cccnc1Cl)c1nc2ccccc2[nH]1 40.1%, CCCc1cc(=O)[nH]c(SCC(=O)c2c(N)n(C3CC3)c(=O)[nH]c2=O)n1 7.16%, COc1ccc(N2CC(C(=O)NCCc3c[nH]c4ccccc34)CC2=O)cc1 (stereo not given) 36.1%, CCCCNC(=O)COC(=O)c1cc(C)oc1C 0.394%

Potency, inconclusive:
CCOCCCn1c(SCc2ccccc2)nnc1-c1ccncc1 6.51 µM [falling, single point], CCCCNC(=O)CCNC(=O)c1ccc(C(C)(C)C)cc1 0.13 µM [falling, partial curve], CCOc1ccc2nc3sc(C(=O)N4CCN(C)CC4)c(N)c3cc2c1 0.82 µM [activator, partial curve], COc1ccc(/C=C/c2nc3cc(-c4ccccc4)ccc3o2)cc1O 3.26 µM [activator, partial curve], CCOC(=O)CN(C(=O)CNC(=O)c1ccco1)C(C(=O)NC1CCCC1)c1ccccc1OCC (stereo not given) 29.1 µM [activator, single point], Cc1ccsc1CN(C)C(=O)CCc1nnc(COc2ccccc2)o1 29.1 µM [falling, single point], CC1CCCCC1NC(=O)COC(=O)c1ccc2ncsc2c1 (stereo not given) 29.1 µM [activator, single point], CC(=O)Oc1ccc2occ(C(=O)c3cccs3)c2c1 29.1 µM [falling, single point], Cc1cc(C)n2nc(SCCC(=O)NCCc3ccccc3)nc2n1 2.31 µM [rising, partial curve, poor fit]
